Measured values from patent US20150212086A1.
Results are given in words; binding and its absence hold for the method and conditions named. Some binding calls cover weakened binding; strength is not graded here.

Chains of the proteins cited; added tags and fusions are not shown.
UniProt P11404: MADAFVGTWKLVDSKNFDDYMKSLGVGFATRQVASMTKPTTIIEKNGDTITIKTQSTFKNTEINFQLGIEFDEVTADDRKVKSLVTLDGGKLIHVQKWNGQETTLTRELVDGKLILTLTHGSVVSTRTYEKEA

Experiments:
[1] = molecular target: MDGI prey cDNAs from the murine embryonic (E12.5) cDNA library (yeast-two-hybrid hits) (mouse) (UniProt P11404); assay: yeast-two-hybrid screen
[2] = molecular target: MDGI prey cDNAs from the murine embryonic (E12.5) cDNA library (yeast-two-hybrid hits) (mouse) (UniProt P11404); assay: yeast-two-hybrid screen, CooP bait against a murine embryonic E12.5 cDNA library

binding [1]: binds
binding [2]: binds
B1: CooP peptide sequence as bait in the pGBKT7 vector (yeast-two-hybrid) (peptide, not shown: large carriers)
chain: CGLSGLGVA
